Results as given in publication PMC3745347, “Interaction of Glucocorticoid Receptor (GR) with Estrogen Receptor (ER) α and Activator Protein 1 (AP1) in Dexamethasone-mediated Interference of ERα Activity*” (The Journal of Biological Chemistry, 2013).
Results are given in words; binding and its absence hold for the method and conditions named. For some of these results: Binding seen in cells or lysates may run through a third protein. Some binding calls cover weakened binding; strength is not graded here.

The chains behind the UniProt entries cited, without tags or fusion partners. Where a name states a change or a piece, a line headed by the entry shows the natural chain unless it says otherwise. A line that says so, or that is headed by a name, gives the form on record, which may keep a tag or linker. Residues count along the entry.
UniProt P03372: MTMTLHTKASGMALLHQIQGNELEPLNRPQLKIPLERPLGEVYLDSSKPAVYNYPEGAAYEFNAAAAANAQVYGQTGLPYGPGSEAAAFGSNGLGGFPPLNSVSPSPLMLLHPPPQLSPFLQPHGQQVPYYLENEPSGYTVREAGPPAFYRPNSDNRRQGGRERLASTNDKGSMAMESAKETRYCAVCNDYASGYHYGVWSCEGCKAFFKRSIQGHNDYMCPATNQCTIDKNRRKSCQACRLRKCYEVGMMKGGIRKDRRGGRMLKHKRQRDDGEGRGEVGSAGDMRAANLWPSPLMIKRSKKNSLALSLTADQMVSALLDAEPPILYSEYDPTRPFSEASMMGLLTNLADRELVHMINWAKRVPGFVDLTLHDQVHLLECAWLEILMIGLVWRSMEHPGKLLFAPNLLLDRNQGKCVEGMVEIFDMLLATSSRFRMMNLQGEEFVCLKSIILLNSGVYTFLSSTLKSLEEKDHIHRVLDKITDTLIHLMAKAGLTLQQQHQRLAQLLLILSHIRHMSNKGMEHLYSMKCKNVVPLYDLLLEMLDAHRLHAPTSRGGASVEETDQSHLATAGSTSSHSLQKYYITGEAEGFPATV
GST-ERα-C (aa 251-595): residues 251-595 of P03372
GST-GR-DBD (aa 435-510) (P06536, residues 435-510): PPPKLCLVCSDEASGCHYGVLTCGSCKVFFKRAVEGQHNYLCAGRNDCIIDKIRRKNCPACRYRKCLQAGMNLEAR
GST-GR-DBD (R488Q) (P06536, form named): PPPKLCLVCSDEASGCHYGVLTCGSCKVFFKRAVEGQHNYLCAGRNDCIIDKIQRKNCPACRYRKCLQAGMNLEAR
UniProt P04150: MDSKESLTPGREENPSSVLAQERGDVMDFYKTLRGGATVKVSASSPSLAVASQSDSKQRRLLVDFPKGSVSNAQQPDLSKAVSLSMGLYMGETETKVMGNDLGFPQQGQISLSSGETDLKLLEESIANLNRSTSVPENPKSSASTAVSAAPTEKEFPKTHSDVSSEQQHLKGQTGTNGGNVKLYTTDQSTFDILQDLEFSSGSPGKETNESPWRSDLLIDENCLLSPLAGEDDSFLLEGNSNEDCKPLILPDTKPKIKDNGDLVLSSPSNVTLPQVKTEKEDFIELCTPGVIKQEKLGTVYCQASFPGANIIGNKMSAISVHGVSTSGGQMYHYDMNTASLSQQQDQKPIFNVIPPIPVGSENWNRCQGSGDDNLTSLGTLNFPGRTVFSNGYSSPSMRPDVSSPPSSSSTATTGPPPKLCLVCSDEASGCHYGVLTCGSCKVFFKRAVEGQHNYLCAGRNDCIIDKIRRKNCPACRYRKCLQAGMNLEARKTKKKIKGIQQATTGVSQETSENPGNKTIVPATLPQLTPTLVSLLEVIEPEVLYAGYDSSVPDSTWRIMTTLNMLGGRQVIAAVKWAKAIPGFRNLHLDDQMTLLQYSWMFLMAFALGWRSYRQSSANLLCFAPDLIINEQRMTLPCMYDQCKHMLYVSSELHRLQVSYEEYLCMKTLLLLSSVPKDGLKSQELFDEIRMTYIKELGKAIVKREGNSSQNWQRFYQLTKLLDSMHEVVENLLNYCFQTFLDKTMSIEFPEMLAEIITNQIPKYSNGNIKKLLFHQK

What was measured:
[1] = target: GST-ERα-C (aa 251-595) (human) (UniProt P03372); assay: pull-down; GST-ERα proteins on glutathione beads incubated with baculovirus-expressed, partially purified human GR; 50 mM Tris pH 8.0, 5 mM EDTA, 150 mM NaCl, 0.5% Nonidet P-40, 1 h at 4 °C; washes with up to 500 mM NaCl; blot for GR; both purified
[2] = target: estrogen receptor α (ERα), endogenous in MCF-7 cells (human (endogenous in MCF-7)) (UniProt P03372); assay: co-IP; whole cell extracts of MCF-7 cells treated with VEH, E2 (10 nM), Dex (100 nM) or E2+Dex for 1 h; endogenous ERα immunoprecipitated with anti-ERα (HC-20), blot for GR; lysis buffer 50 mM Tris-HCl pH 7.5, 5 mM EDTA, 150 mM NaCl, 0.5% Nonidet P-40, 5% glycerol
GST-GR-DBD (R488Q) = GST-GR-DBD (R488Q) (UniProt P06536); assay: pull-down; GST-GR proteins immobilised on glutathione beads incubated with in vitro translated ERα (TNT system); washed as in the forward pull-down; blot with anti-ERα (HC-20); only the target purified
GST-GR-DBD (aa 435-510) = GST-GR-DBD (aa 435-510) (UniProt P06536); assay: as above

## baculovirus expressed full-length human GR (from UniProt P04150 1-777) (receptor)
[1]
  binding: binds weakly

## glucocorticoid receptor (GR), endogenous in MCF-7 cells (from UniProt P04150 1-777)
[2]
  binding: binds

## in vitro translated full-length human ERα (from UniProt P03372 1-595) (receptor)
GST-GR-DBD (R488Q)
  binding: no binding
GST-GR-DBD (aa 435-510)
  binding: binds
